PubChem BioAssay AID1159578, Peter MacCallum Cancer Centre, 2015

Purpose: 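Knock-downs that alter how fast lymphatic endothelial cells migrate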 (primary screen)
Cells: human lymphatic endothelial cells
Knock-down reagent: siRNA pool against human genes, 40 nM
Duration: 48 h after transfection
Detection: 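Cells stained with dye and imaged after a scratch; covered wound area and nuclei counted, duplicates averaged, migration set against mock wells and turned into a robust z-score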
Direction: migration robust z-score: higher = faster migration into the scratch; migration relative to mock: higher = more scratch area covered than mock; nuclei per well: higher = more cells in the well
Call rule: 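Migration changed when robust z exceeds 2 or falls below -2 and mean nuclei number is at least 3300; otherwise not called changed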
Meaning of the calls: active = migration changed; inactive = no migration change, or too few cells
In all, the deposit lists about 18,000 reagents; this is a part drawn at random. In the full data, about 1,030 (5.7%) were called active. 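Inactive calls also include pools with fewer than 3300 nuclei, whose migration was not assessed.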 Raw values vary from plate to plate and are shown uncorrected.

no.	gene	PubChem SID	migration robust z-score	migration class with cell-count check	migration relative to mock	nuclei per well, duplicate mean	Outcome
1	CA13	SID255365396	0.11	migration z between -2 and 2; enough cells	0.82	4840	inactive
2	PLTP	SID255351644	0.16	migration z between -2 and 2; enough cells	0.84	5264	inactive
3	NFATC2	SID255351214	-1.04	migration z between -2 and 2; enough cells	0.6	5752	inactive
4	GRAMD2A	SID255363984	0.78	migration z between -2 and 2; enough cells	1.08	7284	inactive
5	TIMM10B	SID255356799	0.7	migration z between -2 and 2; enough cells	1.06	4700	inactive
6	DDIT3	SID255349265	-1.71	migration z between -2 and 2; enough cells	0.48	4762	inactive
7	MRPL50	SID255358067	0.34	migration z between -2 and 2; enough cells	0.97	5174	inactive
8	PM20D2	SID255362992	-0.35	migration z between -2 and 2; enough cells	0.8	6058	inactive
9	DDX3X	SID255349269	1.6	migration z between -2 and 2; enough cells	1.12	5660	inactive
10	ATG7	SID255355157	-0.13	migration z between -2 and 2; enough cells	0.78	4793	inactive
11	NRG2	SID255354360	-1.12	migration z between -2 and 2; enough cells	0.59	6394	inactive
12	SSX9P	SID255364616	0.16	migration z between -2 and 2; enough cells	0.93	5665	inactive
13	XIRP2	SID255362832	-0.11	migration z between -2 and 2; enough cells	0.86	5937	inactive
14	FOXD4L1	SID255364035	-0.38	migration z between -2 and 2; enough cells	0.78	5201	inactive
15	NEXN	SID255361934	0.11	migration z between -2 and 2; enough cells	0.92	4286	inactive
16	TTI1	SID255354462	0.64	migration z between -2 and 2; enough cells	1.05	5800	inactive

4 successive records already listed, quoted:
no.	gene	PubChem SID	migration robust z-score	migration class with cell-count check	migration relative to mock	nuclei per well, duplicate mean	Outcome
3	NFATC2	SID255351214	-1.04	migration z between -2 and 2; enough cells	0.6	5752	inactive
4	GRAMD2A	SID255363984	0.78	migration z between -2 and 2; enough cells	1.08	7284	inactive
5	TIMM10B	SID255356799	0.7	migration z between -2 and 2; enough cells	1.06	4700	inactive
6	DDIT3	SID255349265	-1.71	migration z between -2 and 2; enough cells	0.48	4762	inactive

Continued.
no.	gene	PubChem SID	migration robust z-score	migration class with cell-count check	migration relative to mock	nuclei per well, duplicate mean	Outcome
17	SLC5A12	SID255363694	-0.08	migration z between -2 and 2; enough cells	0.79	5274	inactive
18	TGIF2LY	SID255361851	0.62	migration z between -2 and 2; enough cells	0.92	5233	inactive
19	PIH1D1	SID255358347	-0.11	migration z between -2 and 2; enough cells	0.86	6072	inactive
20	ARSA	SID255348407	-1.25	migration z between -2 and 2; enough cells	0.56	4464	inactive
21	ADAM12	SID255353374	-0.78	migration z between -2 and 2; enough cells	0.66	5792	inactive
22	KIR3DL1	SID255350648	0.19	migration z between -2 and 2; enough cells	0.94	4922	inactive
23	ZKSCAN3	SID255360752	-0.22	migration z between -2 and 2; enough cells	0.83	6166	inactive
24	PTPN11	SID255351951	0.44	migration z between -2 and 2; enough cells	0.89	5834	inactive
25	ASB18	SID255365769	-0.08	migration z between -2 and 2; enough cells	0.79	5128	inactive
26	GINS1	SID255354597	-0.58	migration z between -2 and 2; enough cells	0.73	6276	inactive
27	CDC37L1	SID255358760	1.1	migration z between -2 and 2; enough cells	1.17	6268	inactive
28	ASCL2	SID255348419	1.36	migration z between -2 and 2; enough cells	1.23	5822	inactive
29	CYP2E1	SID255349206	0.29	migration z between -2 and 2; enough cells	0.86	7412	inactive
30	MAGEC2	SID255357717	-0.34	migration z between -2 and 2; enough cells	0.8	6118	inactive
31	MTMR7	SID255354040	-0.68	migration z between -2 and 2; enough cells	0.68	4872	inactive
32	SMR3A	SID255356855	0.52	migration z between -2 and 2; enough cells	1.02	5375	inactive
33	RPAP3	SID255360364	-0.39	migration z between -2 and 2; enough cells	0.78	5467	inactive
34	FCRL6	SID255365160	0.25	migration z between -2 and 2; enough cells	0.94	5459	inactive
35	KNCN	SID255363400	0.28	migration z between -2 and 2; enough cells	0.96	4372	inactive
36	PENK	SID255351503	1.81	migration z between -2 and 2; enough cells	1.35	5412	inactive
37	DPPA2	SID255363512	1.14	migration z between -2 and 2; enough cells	1.17	6920	inactive
38	RASSF9	SID255354097	-0.84	migration z between -2 and 2; enough cells	0.67	5533	inactive
39	EFS	SID255354959	-1.73	migration z between -2 and 2; enough cells	0.44	5510	inactive
